Library screening results

By UniProt entry, the sequences of proteins in these tests, tags left out.
UniProt E9BF75, entry or part of it: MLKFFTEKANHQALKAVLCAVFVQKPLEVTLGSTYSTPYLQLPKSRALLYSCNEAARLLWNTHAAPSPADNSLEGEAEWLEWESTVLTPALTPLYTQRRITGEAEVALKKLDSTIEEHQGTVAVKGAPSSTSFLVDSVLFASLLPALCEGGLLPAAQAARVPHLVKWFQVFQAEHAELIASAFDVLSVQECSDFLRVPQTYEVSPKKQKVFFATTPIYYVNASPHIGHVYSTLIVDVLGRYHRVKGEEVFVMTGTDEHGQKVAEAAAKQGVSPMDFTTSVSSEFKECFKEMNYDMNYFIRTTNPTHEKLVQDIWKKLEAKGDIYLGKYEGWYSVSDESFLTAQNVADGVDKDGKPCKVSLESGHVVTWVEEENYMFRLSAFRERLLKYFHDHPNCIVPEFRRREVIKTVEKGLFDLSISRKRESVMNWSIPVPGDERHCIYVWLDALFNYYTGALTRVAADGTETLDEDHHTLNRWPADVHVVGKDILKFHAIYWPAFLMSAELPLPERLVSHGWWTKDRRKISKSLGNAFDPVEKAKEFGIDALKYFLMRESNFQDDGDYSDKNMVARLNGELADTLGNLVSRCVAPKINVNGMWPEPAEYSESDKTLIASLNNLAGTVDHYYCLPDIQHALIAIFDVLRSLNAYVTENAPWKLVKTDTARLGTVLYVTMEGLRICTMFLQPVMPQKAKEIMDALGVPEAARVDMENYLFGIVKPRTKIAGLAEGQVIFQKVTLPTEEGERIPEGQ

Results are percentages, as filed. How 0% and 100% were set is not recorded. Most values in the screen are low, and negative values occur. This is an unselected part of the compounds tested. A dash means the value is not listed here; it may have been measured.

LdMetRS: 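Methionyl-tRNA synthetase (putative), Leishmania donovani (UniProt E9BF75). Primary screen of methionyl-tRNA synthetase; the read-out is not stated. The test concentration is not given. Values are per cent inhibition. About 68,000 compounds were tested under these conditions; 0.035% (about 24) showed 50% or more at least once.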
Mtb heat-shock: 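Assay on Mycobacterium tuberculosis, filed only as a heat shock assay from Cornell; the read-out is not stated. The concentration is filed as 10 mM, unlikely as a test dose, so the dose is not known. Direction is inferred from retests: higher values go with stronger inhibition. Size under these conditions: about 69,000 compounds, about 930 of them at 50% or above in at least one test.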

| compound | LdMetRS | Mtb heat-shock |
|---|---|---|
| `CC(C)c1nn(C)c(N(C)C)c1CNCc1cccnc1N(C)C` | 20 | 20.07 |
| `Cc1nc(CN(C)C2CCN(Cc3nc(C4CC4)no3)C2)no1` (stereo not given) | 13.65 | -3.425 |
| `[H][C@@]12C[C@@H](C)O[C@]1([H])CN(C(=O)c1ccccc1C)C2` | - | -7.733 |
| `CN(C)c1ccnc(N2CCC(NCCOc3ccccc3)CC2)n1` | 5.645 | -13.69 |
| `Cc1cc(C)c(OCC(=O)NS(=O)(=O)c2c(C)noc2C)c(C)c1` | 11.04 | 12.22 |
| `O=C(c1cc(F)cc(F)c1)N1CCC(O)(C(F)(F)F)CC1` | 16.91 | -16.83 |
| `Cn1cc(C2CN(C(=O)Cc3coc(-c4ccccc4)n3)CCO2)cn1` (stereo not given) | 3.106 | -3.798 |
| `NC(=O)[C@@H]1CN2CCN(C(=O)C3CC3)C[C@@H]2[C@H]1c1ccccc1` | 12.33 | - |
| `Nc1nc(N2CCCCCC2)ncc1C(=O)NCc1ccc(F)c(Cl)c1` | 19.63 | 31.22 |
| `Cn1cc(NC(=O)CNC(=O)N2CCN(c3ccccc3)CC2)cn1` | 17.69 | -10.91 |
| `Cc1cnn(Cc2ccc(NC(=O)N3CCCCC3CO)cc2)c1` (stereo not given) | 5.222 | -8.91 |
| `O=C(O)C(F)(F)F.[H][C@@]12C[C@@H](C(=O)N(C)C)CN(CCOc3ccc(Cl)cc3)[C@]1([H])CCO2` | - | -2.599 |
| `CC(=O)NCCc1cc(N2CCN(C(C)=O)CC2)nc(C2CC2)n1` | 9.247 | 7.477 |
| `CN1CCN(C2CCN(CCOc3ccc(C#N)cc3)CC2)C1=O` | 19.09 | -14.91 |
| `CCC(C(=O)N1CCCN(CCN(C)C)CC1)N1CCCC1=O` (stereo not given) | 4.19 | -10.5 |
| `O=C1[C@@H]2CN(c3ncnc4sccc34)C[C@]2(C(=O)O)CN1CC1CC1` | 7.161 | - |
| `CS(=O)(=O)N1CCN(c2cc(N3CCCC3CO)ncn2)CC1` (stereo not given) | 12.01 | -0.07305 |
| `Cc1cc(N2CCCC2)c(C#N)c(C)n1` | 7.796 | -7.367 |
| `O=C(c1ccc(=O)[nH]n1)N1CCC(CN2CCOCC2)CC1` | 15.82 | -4.894 |
| `O=C(NCCn1ccnc1)N1CCCC1c1ccsc1` (stereo not given) | 12.27 | 34.93 |
| `Cc1nnc2n1CCN(c1nc3ccccc3o1)C2` | 13.19 | 5.424 |
| `COc1cc(CN)c(OC)c2c1OCO2` | 13.25 | - |
| `Cc1cc(C)n(CCN2CCC(N(C)Cc3nnc(C)n3C)C2)n1` (stereo not given) | 7.046 | -28.53 |
| `Cc1ccnc(OC[C@@]23CCO[C@@H]2CCN(C2CCC2)C3)n1` | 5.109 | - |
| `O=C1CCCN1C1CCCN(CCOc2ccc(F)cc2)C1` (stereo not given) | 13.83 | 10.69 |
| `[H][C@]12CCN(c3ncc(CC)cn3)C[C@@]1([H])OCCN(C(=O)c1ccco1)C2` | - | 3.71 |
| `CCNS(=O)(=O)c1ccc2c(c1)c(=O)n(CC)c(=O)n2CC` | 8.602 | 12.43 |
| `Cc1cc(=O)n(CC(=O)NC2CCCCC2)c2ccccc12` | 10.21 | 4.507 |
| `CCCC(=O)N1CCCC(C(=O)c2cnn(-c3ccc(F)cc3)c2N)C1` (stereo not given) | 12.73 | -10.8 |
| `COc1ccc(CN2C[C@@H]3OCCN(C)[C@@H]3C2)cc1` | 12.67 | - |
| `CC(C)NC(=O)CS(=O)(=O)Cc1cc(Cl)c2c(c1)OCCO2` | 8.92 | 26.66 |
| `COC(=O)C1CN(Cc2ccn(-c3ccc(F)cc3)n2)CCO1` (stereo not given) | 8.157 | -179.3 |
| `Cc1cc(N2CCN(Cc3ccsc3)C(CCO)C2)nc(N)n1` (stereo not given) | 9.756 | -27.59 |
| `[H][C@]12CC[C@](C(=O)N3CCC(n4cc(CO)nn4)CC3)(C1)C(=C)C2(C)C` | - | 11.02 |
| `CC(C)COC(=O)N1CCCN(C(C)c2nnc(CC(C)C)o2)CC1` (stereo not given) | 12.14 | -25.49 |
| `COCc1nc(CN2CC(Cc3ccccc3)CC2=O)no1` (stereo not given) | 18.64 | 32.41 |
| `O=C(c1cn(-c2cc(N3CCSCC3)ncn2)cn1)N1CCOCC1` | 1.748 | -12.43 |
| `COCc1cc(N2CCN(C3CCCCC3)CC2)n2nccc2n1` | 9.207 | -3.593 |
| `O=C(O)C(F)(F)F.[H][C@@]12COC[C@]1(CNC(=O)c1ccccc1)CN(Cc1cnn(C)c1)C2` | - | -17.03 |
| `CSCCC(=O)N(C/C=C/c1ccccc1)CCO` | 12.06 | 8.753 |
| `O=C(Cc1ccccn1)N1CCc2ncnc(N3CCCC3)c2CC1.O=C(O)C(F)(F)F` | - | -17.95 |
| `CN1CCCN(C(=O)c2ccn3ccnc3c2)CC1` | 7.843 | -7.877 |
| `O=C(c1cc[nH]n1)N1CCCC(c2cc(C(F)(F)F)[nH]n2)C1` (stereo not given) | 15.43 | -1.201 |
| `Cc1nc2c(c(N3CCC(CN4CCCC4=O)CC3)n1)CCNCC2` | 12.41 | 34.1 |
| `CCN(C(=O)c1ccc(-c2ccccc2)nc1C)C1CC(=O)NC1=O` (stereo not given) | 15.25 | 31.04 |
| `CCCN(CCC)S(=O)(=O)c1cc(NC(C)=O)ccc1C` | 6.62 | -1.569 |
| `[H][C@]12CC[C@]([H])(CN(Cc3ccccc3C#N)C1)N(CC1CCC1)C2=O` | - | -29.97 |
| `O=C(c1cn[nH]c1)N1CCC2(CCCN(Cc3ccc(F)c(F)c3)C2)C1` (stereo not given) | 12.24 | 2.982 |
| `Cc1ccc(CN2CCc3onc(C(=O)N4CCCC4)c3C2)o1.O=C(O)C(F)(F)F` | - | 16.48 |
| `CCSCCNC(=O)c1ccc(S(=O)(=O)N2C[C@@H]3C[C@H]2CN3)cc1` | 12.47 | - |

Repeated from the top, 3 entries:

compound	LdMetRS	Mtb heat-shock
CC(C)c1nn(C)c(N(C)C)c1CNCc1cccnc1N(C)C	20	20.07
Cc1nc(CN(C)C2CCN(Cc3nc(C4CC4)no3)C2)no1 (stereo not given)	13.65	-3.425
[H][C@@]12C[C@@H](C)O[C@]1([H])CN(C(=O)c1ccccc1C)C2	-	-7.733

Measurements from “University of Dundee, Small-Polar-MMV Screening Library” (2021), ChEMBL document CHEMBL3988442.